No constants are given. Whether binding was seen depends on the method and setting. In cells and extracts the contact can be indirect. Some binding calls cover weakened binding; strength is not graded here.

Chains of the proteins cited; added tags and fusions are not shown.
UniProt P35222: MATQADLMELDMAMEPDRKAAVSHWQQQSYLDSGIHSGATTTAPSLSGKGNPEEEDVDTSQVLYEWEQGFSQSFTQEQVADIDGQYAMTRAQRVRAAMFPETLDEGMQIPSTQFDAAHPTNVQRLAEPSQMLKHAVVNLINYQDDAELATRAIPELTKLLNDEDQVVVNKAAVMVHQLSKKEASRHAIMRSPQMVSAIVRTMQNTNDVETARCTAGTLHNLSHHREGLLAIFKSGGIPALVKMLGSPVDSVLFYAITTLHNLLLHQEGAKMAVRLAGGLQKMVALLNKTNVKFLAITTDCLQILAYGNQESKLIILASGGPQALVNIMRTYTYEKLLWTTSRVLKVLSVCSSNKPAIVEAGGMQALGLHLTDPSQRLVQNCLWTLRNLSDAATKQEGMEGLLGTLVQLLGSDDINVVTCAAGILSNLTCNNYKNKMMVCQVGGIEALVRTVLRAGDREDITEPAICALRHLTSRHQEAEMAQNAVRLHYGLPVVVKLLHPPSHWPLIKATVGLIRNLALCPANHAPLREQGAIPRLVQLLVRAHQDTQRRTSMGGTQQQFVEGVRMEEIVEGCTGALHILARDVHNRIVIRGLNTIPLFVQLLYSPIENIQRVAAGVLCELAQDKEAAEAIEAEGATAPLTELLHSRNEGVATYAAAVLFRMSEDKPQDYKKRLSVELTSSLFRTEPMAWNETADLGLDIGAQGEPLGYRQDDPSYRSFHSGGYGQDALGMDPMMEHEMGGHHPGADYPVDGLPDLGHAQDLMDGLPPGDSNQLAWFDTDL

The assay addresses T1, harmonin (USH1C), endogenous in HEK293T cells (human (endogenous in HEK293T)) (UniProt Q9Y6N9).
T1 sequence: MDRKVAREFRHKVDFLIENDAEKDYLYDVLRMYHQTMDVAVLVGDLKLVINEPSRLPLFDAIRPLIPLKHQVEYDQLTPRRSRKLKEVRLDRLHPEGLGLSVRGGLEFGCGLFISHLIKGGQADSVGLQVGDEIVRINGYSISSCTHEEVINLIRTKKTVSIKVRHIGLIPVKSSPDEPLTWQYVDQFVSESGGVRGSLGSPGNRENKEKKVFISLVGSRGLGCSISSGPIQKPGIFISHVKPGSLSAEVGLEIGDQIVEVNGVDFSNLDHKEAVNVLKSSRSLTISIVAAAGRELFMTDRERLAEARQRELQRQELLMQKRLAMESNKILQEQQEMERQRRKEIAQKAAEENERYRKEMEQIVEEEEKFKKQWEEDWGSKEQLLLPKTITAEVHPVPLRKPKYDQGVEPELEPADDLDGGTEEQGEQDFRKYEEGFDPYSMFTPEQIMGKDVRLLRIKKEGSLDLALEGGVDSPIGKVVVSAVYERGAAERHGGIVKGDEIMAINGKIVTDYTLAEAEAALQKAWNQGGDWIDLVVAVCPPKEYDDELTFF
In words: proximity ligation; Duolink PLA in fixed HEK293T cells, endogenous proteins, anti-harmonin (rabbit) and anti-β-catenin (mouse) antibodies; controls with only one or none of the primary antibodies.

As for “β-catenin, endogenous in HEK293T cells (from UniProt P35222 1-781)”, the binding entry is listed as “binds”.

These data come from publication PMC9944737.
